# From PubChem BioAssay (EPA / NIEHS)
# Protein sequences, listed by entry. Tags and fused reporters are not part of them. Lines headed by an entry give the natural chain unless they say otherwise; changes in a name come on top.
# UniProt P04637, whole entry, looked up: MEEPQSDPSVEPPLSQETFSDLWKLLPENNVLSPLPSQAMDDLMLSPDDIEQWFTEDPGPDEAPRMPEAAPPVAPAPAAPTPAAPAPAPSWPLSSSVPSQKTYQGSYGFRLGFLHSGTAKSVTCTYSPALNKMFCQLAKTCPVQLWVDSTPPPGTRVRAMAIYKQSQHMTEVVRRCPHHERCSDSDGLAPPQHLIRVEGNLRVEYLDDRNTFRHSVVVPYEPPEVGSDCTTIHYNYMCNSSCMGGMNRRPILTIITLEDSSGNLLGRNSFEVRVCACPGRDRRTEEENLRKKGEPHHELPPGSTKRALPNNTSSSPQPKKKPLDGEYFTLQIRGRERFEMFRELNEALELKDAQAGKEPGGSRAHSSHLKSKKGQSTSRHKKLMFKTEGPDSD
# UniProt P10827: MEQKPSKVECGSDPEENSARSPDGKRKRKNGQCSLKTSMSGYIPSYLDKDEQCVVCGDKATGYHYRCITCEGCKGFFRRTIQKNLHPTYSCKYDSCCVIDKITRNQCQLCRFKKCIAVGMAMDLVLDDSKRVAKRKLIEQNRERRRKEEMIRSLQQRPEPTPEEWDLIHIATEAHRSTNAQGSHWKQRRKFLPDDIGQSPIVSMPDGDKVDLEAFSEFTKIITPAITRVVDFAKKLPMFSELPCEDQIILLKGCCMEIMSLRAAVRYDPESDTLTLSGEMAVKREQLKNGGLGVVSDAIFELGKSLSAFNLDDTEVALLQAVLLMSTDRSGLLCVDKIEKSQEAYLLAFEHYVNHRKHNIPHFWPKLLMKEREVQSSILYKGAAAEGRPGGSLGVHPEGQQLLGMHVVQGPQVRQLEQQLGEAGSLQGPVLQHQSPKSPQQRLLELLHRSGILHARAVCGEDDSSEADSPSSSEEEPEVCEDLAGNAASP
# UniProt P10828: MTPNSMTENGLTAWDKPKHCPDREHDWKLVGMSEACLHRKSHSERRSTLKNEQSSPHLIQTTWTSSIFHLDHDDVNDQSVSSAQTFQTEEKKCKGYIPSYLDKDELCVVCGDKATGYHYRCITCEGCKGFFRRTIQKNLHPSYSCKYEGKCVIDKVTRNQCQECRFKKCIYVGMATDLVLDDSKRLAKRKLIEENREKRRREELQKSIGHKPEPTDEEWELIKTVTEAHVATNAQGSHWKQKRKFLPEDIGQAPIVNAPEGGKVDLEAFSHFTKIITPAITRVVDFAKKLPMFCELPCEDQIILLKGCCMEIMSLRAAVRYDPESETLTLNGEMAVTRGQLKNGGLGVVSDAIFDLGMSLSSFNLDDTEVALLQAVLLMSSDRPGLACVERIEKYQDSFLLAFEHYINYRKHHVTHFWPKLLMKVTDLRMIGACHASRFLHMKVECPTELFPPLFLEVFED
# Several values for one entry are separate records, joined by “and”; a condition that tells them apart may be missing. Equal values may be shown once. The inconclusive results got no clear call from the source; some entries with a clear call stand among them for comparison. For some of these results: Potencies beside an inconclusive call are fits to weak or partial responses and may not hold up. The source holds several records for some structures; these can differ, active in one and inactive in another. Activity calls are given as the source filed them. Rule for the calls: active = hit-call score of the fitted dose curve at least 0.9, where 1 is the maximum; inconclusive = response in the unintended direction; inactive = score below 0.9.
# Columns and labels:
# [1] = target: Cellular tumor antigen p53 (Homo sapiens) (UniProt P04637); assay: TOX21_p53_BLA_p3_ratio: Tox21 HCT-116 p53 Agonism Beta-lactamase Assay, Ratio, Phase 3 (AID 2283596)
# In short: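 Cells were seeded at 4000/well, rested 5 h at 37C, then dosed with DMSO compound solutions (217-fold dilution) for 16 h. CCF4-AM substrate was loaded for 2 h at room temperature, and the 460/530 nm emission ratio was fitted for gain of signal versus DMSO.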
# [2] = target: Cellular tumor antigen p53 (Homo sapiens) (UniProt P04637); assay: TOX21_p53_BLA_p5_ratio: Tox21 HCT-116 p53 Agonism Beta-lactamase Assay, Ratio, Phase 5 (AID 2283599)
# In short: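 HCT-116 p53-bla cells (4000/well) plated 5 h, dosed with compound (217-fold DMSO dilution) for 16 h at 37 C; CCF4-AM substrate 2 h at room temperature. Activity is the 460/530 nm emission ratio (405 nm excitation), fitted in gain-of-signal direction versus DMSO.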
# [3] = target: Cellular tumor antigen p53 (Homo sapiens) (UniProt P04637); assay: TOX21_p53_BLA_p4_ratio: Tox21 HCT-116 p53 Agonism Beta-lactamase Assay, Ratio, Phase 4 (AID 2283601)
# In short: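 HCT-116 p53 beta-lactamase reporter cells (4000/well) preincubated 5 h, then compound (217-fold dilution of DMSO stock) for 16 h at 37C. CCF4-AM substrate added 2 h at room temperature; 460/530 nm emission ratio fitted upward versus DMSO.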
# [4] = TOX21_p53_BLA_p4_viability: Viability Assessment in the Tox21 HCT-116 p53 Agonism Beta-lactamase Assay, Phase 4 (AID 2283597);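 note: hits lower the luminescence signal meaning cytotoxicity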
# In short: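 Cytotoxicity as reduced cellular ATP (CellTiter-Glo luminescence, 30 min room temperature), measured in the same wells following the CCF4 FRET p53 reading. Human HCT-116 cells received compounds in DMSO (217-fold dilution) for 16 h.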
# [5] = TOX21_p53_BLA_p5_viability: Viability Assessment in the Tox21 HCT-116 p53 Agonism Beta-lactamase Assay, Phase 5 (AID 2283600)
# In short: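 Viability came from CellTiter-Glo ATP luminescence, read after 30 min at room temperature. Before this, HCT-116 p53-bla cells (4000/well) had 16 hours of compound exposure at 37C, with DMSO stocks diluted 217-fold on transfer.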
# [6] = TOX21_p53_BLA_p3_viability: Viability Assessment in the Tox21 HCT-116 p53 Agonism Beta-lactamase Assay, Phase 3 (AID 2283593);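 note: cells exposed to compound for 16 h before reading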
# In short: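 HCT116 cells, 4000/well, dosed 5 h after plating by pin transfer (217-fold dilution from DMSO stock) and incubated 16 h at 37C, 5% CO2. Viability read as ATP luminescence with CellTiter-Glo after 30 min at room temperature.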
# THRA (gene 7067) = THRA (gene 7067) (UniProt P10827); assay: TOX21_TRA_COA_Antagonist_Followup_ratio: Tox21 Thyroid Hormone Receptor alpha Antagonism through Coactivator Recruitment Follow-Up Assay, Ratio (AID 2283953)
# In short: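 GST-TRα LBD 2.5 nM, BSA 0.10%, + cpd; then FITC-SRC-2 peptide 200 nM + Tb-anti-GST Ab 2 nM. TR-FRET ratio 520/495 nm. Norm: DMSO = 0%, T3 = 100%.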
# THRB (gene 7068) = THRB (gene 7068) (UniProt P10828); assay: TOX21_TRB_COA_Antagonist_Followup_ratio: Tox21 Thyroid Hormone Receptor beta Antagonism through Coactivator Recruitment Follow-Up Assay, Ratio (AID 2283967)
# In short: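 GST-TRb LBD 5.0 nM + 0.10% BSA, compound added; fluorescein-SRC-2 peptide 200 nM, Tb-anti-GST Ab 2 nM. TR-FRET, ex 340 / em 520:495 ratio. Norm: DMSO 0%, T3 100%.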
structure (smiles),measurement,setting,value
C1CCC2CCCCC2C1 (centres undefined),AC50,[4],inconclusive: 9.9 µM
same,AC50,[5],inconclusive: 47.5 µM
same,outcome,[3],inactive
BrCCc1ccccc1,outcome,[1],inactive
same,AC50,[2],inconclusive: 46.6 µM
same,AC50,[3],inconclusive: 46.6 µM
C=CCc1cc(OC)c2c(c1)OCO2,outcome,[1],inactive
same,AC50,[4],inconclusive: 47.9 µM
same,AC50,[5],inconclusive: 47.9 µM
Clc1ccc(-c2ccc(Cl)c(Cl)c2Cl)c(Cl)c1Cl,outcome,[6],inactive
same,AC50,[5],inconclusive: 44.2 µM
C=CC1CC=CCC1 (centres undefined),AC50,[4],inconclusive: 0.000127 µM
same,AC50,[5],inconclusive: 46.1 µM
same,AC50,[3],inconclusive: 84.5 µM
CCCN,outcome,[1],inactive
same,outcome,[5],inactive
OCCSCSCCO,AC50,[4],inconclusive: 7.78 µM
same,outcome,[2],inactive
NC(=O)CI,AC50,[4],inconclusive: 46.4 µM
same,outcome,[2],inactive
same,AC50,[5],inconclusive: 7.12 µM
CCCC[P+](CC)(CCCC)CCCC (tested in a mixture with another compound),AC50,[1],inconclusive: 46.4 µM
Cc1nnc2n1-c1ccc(Cl)cc1C(c1ccccc1Cl)=NC2,AC50,[1],inconclusive: 23 µM
same,outcome,[4],inactive
same,AC50,[2],inconclusive: 23 µM
same,AC50,[3],inconclusive: 23 µM
CC(C)[C@@]1(NC(=O)[C@@H]2C[C@@H]3c4cccc5[nH]cc(c45)C[C@H]3N(C)C2)O[C@@]2(O)[C@@H]3CCCN3C(=O)[C@H](Cc3ccccc3)N2C1=O,AC50,[4],active: 33.9 µM
same,AC50,[5],inconclusive: 23 µM
same,outcome,[3],inactive
Cc1ccc2c(c1)C1CN(C)CCC1N2 (centres undefined),AC50,[1],inconclusive: 23 µM
same,AC50,[4],inconclusive: 42.4 µM
same,AC50,[5],inconclusive: 23 µM
O=C(N[C@@H]1N=C(c2ccccc2F)c2cccc3c2N(CC3)C1=O)c1cc2ccccc2[nH]1,AC50,[4],inconclusive: 0.0131 µM
same,outcome,[5],inactive
same,AC50,[3],active: 26.6 µM
same,outcome,THRA (gene 7067),inactive
same,AC50,THRB (gene 7068),inconclusive: 19.2 µM
CN1CCc2cc(Cl)c(O)cc2[C@H]2c3ccccc3CC[C@@H]21,AC50,[6],inconclusive: 23 µM
same,outcome,[5],inactive
same,AC50,[3],inconclusive: 39.4 µM
CCOC(=O)c1cncn1C(C)c1ccccc1 (centres undefined),AC50,[2],inconclusive: 16.3 µM
CC(C)OC(=O)Cc1ccccc1,outcome,[6],inactive
same,AC50,[5],inconclusive: 46.4 µM
same,outcome,[3],inactive
C=CCC1(C(C)CCC)C(=O)N=C(S)NC1=O (centres undefined),AC50,[4],inconclusive: 23 µM
same,AC50,[5],inconclusive: 0.00896 µM
CC(=O)O[C@H]1CC[C@@]2(C)C(=CC[C@@H]3[C@@H]2CC[C@]2(C)C(=O)CC[C@@H]32)C1,AC50,[2],inconclusive: 46.1 µM and inconclusive: 10.3 µM
same,outcome,[5],inactive
Cc1cc(C)c(C(=O)P(=O)(C(=O)c2c(C)cc(C)cc2C)c2ccccc2)c(C)c1,AC50,[1],inconclusive: 46.1 µM
same,AC50,[4],inconclusive: 46.1 µM
same,AC50,[5],inconclusive: 46.1 µM
S=C=S,AC50,[4],inconclusive: 12 µM
same,AC50,[5],inconclusive: 23 µM
same,AC50,[3],inconclusive: 45.6 µM
Clc1c(Cl)c(Cl)c(Cl)c(Cl)c1Cl,AC50,[1],inconclusive: 3.4 µM
same,AC50,[2],inconclusive: 2.3 µM
same,outcome,[5],inactive

# A run of entries from the list above:
structure (smiles),measurement,setting,value
CN1CCc2cc(Cl)c(O)cc2[C@H]2c3ccccc3CC[C@@H]21,AC50,[6],inconclusive: 23 µM
same,outcome,[5],inactive

# Pulled one by one from the list above (2):
structure (smiles),measurement,setting,value
Cc1ccc2c(c1)C1CN(C)CCC1N2 (centres undefined),AC50,[5],inconclusive: 23 µM
S=C=S,AC50,[3],inconclusive: 45.6 µM
